From patent US9505824B2, “Antigen peptide derived from the sequence of epidermal growth factor receptor having T790M point mutation” (Kanagawa Prefectural Hospital Organization, priority 2012, dated 2016)
At least one peptide structure holds a part that was inferred or is arguable (an end, a ring closure or a residue). No end group written: not given here.

Tests used:
[1] = tested on: PBMCs from HLA-A2+ healthy donors; assay: Immunogenicity in PBMCs of HLA-A2+ healthy donors, IFN-γ ELISPOT against peptide-pulsed T2 cells; type: cell-based, human; conditions: PBMCs from 6 HLA-A2+ healthy donors, repeated stimulation with peptide 10 μg/ml
Text: FIG. 1. Immunogenicity of T790M-5 and T790M-7 peptides in peripheral blood mononuclear cells (PBMCs) from normal donors. Immunogenicity of T790M-5 and T790M-7 peptides was examined with PBMCs from 6 different HLA-A2^+ healthy donors.

HLA-A2 molecule [2] = assay: HLA class I stabilization assay with TAP2-deficient RMA-S/A2 cells; type: binding; conditions: peptide 10 μg/ml
[3] = tested on: PBMCs of HLA-A2+ healthy donors; assay: Induction of peptide-specific CTLs from CD8+ cells of HLA-A2+ healthy donors with peptide-loaded dendritic cells and aAPCs, IFN-γ ELISPOT; type: cell-based, human; conditions: 4 HLA-A2+ healthy donors examined
HLA-A2 molecule [4] = target: T1, HLA-A2 molecule (Homo sapiens, UniProt P04439, D140Y/D185E/D98H/E176V/E277Q/G131W/G231S/I119V/I121R/I166T/I218V/L300P/L318F/N151K/N90K/P208A/P217A/Q86G/Q94H/R138H/R169H/T345S); assay: HLA class I stabilization assay with TAP2-deficient T2 cells; type: binding; conditions: T2 cells expressing HLA-A2
T1 construct: TAP2-deficient T2 cells expressing HLA-A2; host or cells: T2 cells (TAP2-deficient, HLA-A2+)
Method: FIG. 6. HLA-A2-binding capability of EGFR-T790M-derived peptides. The binding of selected peptides to an HLA-A2 molecule was evaluated by HLA class I stabilization assay with TAP2-deficient T2 cells expressing HLA-A2.
The binding of predicted peptides to an HLA-A2 molecule was evaluated by HLA class I stabilization assay with TAP2-deficient T2 cells (HLA-A2+) (RIKEN, Saitama, Japan). After overnight culture in RPMI 1640 medium at 26° C., T2 cells were cultured for 3 hours at 26° C. in the presence of each synthetic peptide. The cells were cultured for 2.5 hours at 37° C., and then stained with anti-HLA-A2 antibody (BB7.2) (MBL, Nagoya, Japan), followed by analysis with flow cytometry. The binding capability of each peptide to the HLA-A2 molecule was evaluated by comparing the mean fluorescence intensity (MFI) of HLA-A2 expression of the peptide with those of the positive and the negative controls. The HLA-A2-restricted HIV peptide and CMV peptide were used as positive controls, and H-2K^b-restricted OVA peptide was used as a negative control.

| Compound | healthy donors in whom T cell lines secreting IFN-γ in response to the peptide were established [1] | HLA binding capability (%) (MFI increase of HLA-A2 expression) (HLA-A2 molecule [2]) | donors in whom peptide-specific CTLs were induced [3] | binding to HLA-A2 (in words) (HLA-A2 molecule [4]) |
| --- | --- | --- | --- | --- |
| CC[C@H](C)[C@H](NC(=O)[C@@H](N)CC(C)C)C(=O)N[C@@H](CCSC)C(=O)N[C@@H](CCC(N)=O)C(=O)N[C@@H](CC(C)C)C(=O)N[C@@H](CCSC)C(=O)N1CCC[C@H]1C(=O)N[C@@H](Cc1ccccc1)C(=O)NCC(=O)N[C@@H](CS)C(=O)N[C@@H](CC(C)C)C(=O)O [Peptide T790M-7, LIMQLMPFGCL] | 3 of 6 | 31.2 |  |  |
| IMQLMPFGC [Peptide T790M-A, IMQLMPFGC] |  |  | induced in all of 4 donors examined | confirmed to bind to HLA-A2 |
